Measurements: PMC12775825
Results are given in words; binding and its absence hold for the method and conditions named. In cells and extracts the contact can be indirect. Some entries that bind do so weakly or less than the wild type.

Sequences of proteins named here, by UniProt entry; tags and fusion partners are left off.
UniProt Q8IU85: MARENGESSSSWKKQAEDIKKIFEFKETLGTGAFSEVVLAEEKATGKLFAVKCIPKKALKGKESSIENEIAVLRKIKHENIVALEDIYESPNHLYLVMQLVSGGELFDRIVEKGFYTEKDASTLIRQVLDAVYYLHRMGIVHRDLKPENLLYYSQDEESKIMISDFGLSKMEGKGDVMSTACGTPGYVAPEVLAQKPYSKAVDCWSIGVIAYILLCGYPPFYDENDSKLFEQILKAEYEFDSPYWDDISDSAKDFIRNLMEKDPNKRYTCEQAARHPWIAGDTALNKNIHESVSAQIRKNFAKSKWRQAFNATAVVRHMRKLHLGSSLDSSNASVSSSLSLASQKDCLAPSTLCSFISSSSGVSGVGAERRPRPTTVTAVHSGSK
UniProt P16220: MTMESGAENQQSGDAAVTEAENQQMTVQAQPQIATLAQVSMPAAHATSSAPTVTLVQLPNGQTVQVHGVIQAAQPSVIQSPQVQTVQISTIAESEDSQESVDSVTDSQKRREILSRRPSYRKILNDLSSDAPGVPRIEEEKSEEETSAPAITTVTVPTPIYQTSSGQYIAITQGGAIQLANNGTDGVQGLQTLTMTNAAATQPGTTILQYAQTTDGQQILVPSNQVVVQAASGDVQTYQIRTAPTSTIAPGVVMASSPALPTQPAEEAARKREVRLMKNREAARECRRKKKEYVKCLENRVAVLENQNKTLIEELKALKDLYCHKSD

Key:
[1] = target: cyan fluorescent protein (CFP)-CAMK1D (UniProt Q8IU85); experiment: FRET or BRET; HEK293T cells co-transfected with CFP and YFP fusions, fixed with 4% paraformaldehyde after 24 h; acceptor photobleaching, confocal microscope
[2] = target: CAMK1D (UniProt Q8IU85); experiment: co-IP; Pierce Co-IP Kit; LNCaP-ENZR and C4-2B-ENZR cell lysates; immunocomplexes analysed by western blot with Flag and CREB antibodies

| binding [1] | binding [2] | Substance |
| --- | --- | --- |
| binds | – | yellow fluorescent protein (YFP)-CREB (from UniProt P16220 1-327) |
| – | binds | CREB (from UniProt P16220 1-327) |
